Results: publication PMC5814453
These are yes or no findings as the source states them, for the method shown. In cells and extracts the contact can be indirect. Some results given as binding are weak or reduced against the parent protein; the word gives no strength.

Chains of the proteins cited; added tags and fusions are not shown.
UniProt Q9UM11: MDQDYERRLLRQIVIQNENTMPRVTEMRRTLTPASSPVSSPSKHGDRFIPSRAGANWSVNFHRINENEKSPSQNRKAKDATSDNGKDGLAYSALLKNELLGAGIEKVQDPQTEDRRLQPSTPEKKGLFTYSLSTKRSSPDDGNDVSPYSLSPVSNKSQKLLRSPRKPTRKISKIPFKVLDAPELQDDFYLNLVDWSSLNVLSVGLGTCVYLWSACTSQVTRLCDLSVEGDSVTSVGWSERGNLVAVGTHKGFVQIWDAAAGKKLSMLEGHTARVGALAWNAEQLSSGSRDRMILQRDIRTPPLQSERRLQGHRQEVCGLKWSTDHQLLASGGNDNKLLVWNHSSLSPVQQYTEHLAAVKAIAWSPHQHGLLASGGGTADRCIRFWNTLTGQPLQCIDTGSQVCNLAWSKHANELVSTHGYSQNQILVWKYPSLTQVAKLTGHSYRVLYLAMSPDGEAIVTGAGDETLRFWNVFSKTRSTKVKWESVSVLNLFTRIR
UniProt Q96GD4: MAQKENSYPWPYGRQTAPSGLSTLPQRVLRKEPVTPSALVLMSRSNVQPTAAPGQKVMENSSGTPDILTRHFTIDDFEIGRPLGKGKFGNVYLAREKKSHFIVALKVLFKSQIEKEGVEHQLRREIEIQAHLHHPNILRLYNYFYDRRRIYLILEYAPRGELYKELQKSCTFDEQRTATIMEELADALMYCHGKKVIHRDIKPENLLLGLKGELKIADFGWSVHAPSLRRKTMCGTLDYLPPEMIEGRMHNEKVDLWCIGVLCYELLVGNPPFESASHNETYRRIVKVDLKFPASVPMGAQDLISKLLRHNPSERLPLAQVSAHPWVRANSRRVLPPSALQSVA

Biological target: HA-CDH1 (UniProt Q9UM11)
Test: co-IP; HEK293T cells co-transfected with both tagged proteins for 24 h; about 3 mg lysate (50 mM Tris-HCl, 150 mM NaCl, 1% Triton X-100, 1 mM EDTA, pH 7.5) with Flag-agarose or HA-agarose beads, 4 h at 4 °C; immunoblot

binding: binds
Substance: Myc-Aurora B (from UniProt Q96GD4 1-344) (enzyme)
